Source: patent US20080051336A1 (Janssen / Centocor, published 2008)
Results are given in words; binding and its absence hold for the method and conditions named. Some binding calls cover weakened binding; strength is not graded here.

Legend:
[1] = target: T1, rat GPCR135 (rat); experiment: displacement of 7 pM [125I]-R3/I5, rat brain sections, autoradiography
T1 sequence: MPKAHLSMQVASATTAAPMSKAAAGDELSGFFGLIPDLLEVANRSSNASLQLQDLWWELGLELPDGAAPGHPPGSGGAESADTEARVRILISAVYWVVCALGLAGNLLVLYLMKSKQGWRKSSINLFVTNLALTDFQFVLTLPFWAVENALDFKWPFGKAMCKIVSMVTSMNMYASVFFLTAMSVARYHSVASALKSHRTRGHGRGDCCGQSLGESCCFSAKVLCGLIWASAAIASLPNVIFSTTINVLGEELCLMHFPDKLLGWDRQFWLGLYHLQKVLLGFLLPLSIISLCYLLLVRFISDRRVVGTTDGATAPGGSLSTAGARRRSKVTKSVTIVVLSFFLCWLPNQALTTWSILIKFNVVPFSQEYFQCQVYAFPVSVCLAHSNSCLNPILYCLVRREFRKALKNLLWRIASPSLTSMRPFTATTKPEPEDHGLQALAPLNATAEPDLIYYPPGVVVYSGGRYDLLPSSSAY

[2] = target: T2, human LGR7 (human, UniProt Q9HBX9 1-757); experiment: direct radioligand binding, monolayer cells expressing recombinant LGR7
T2 sequence (looked up): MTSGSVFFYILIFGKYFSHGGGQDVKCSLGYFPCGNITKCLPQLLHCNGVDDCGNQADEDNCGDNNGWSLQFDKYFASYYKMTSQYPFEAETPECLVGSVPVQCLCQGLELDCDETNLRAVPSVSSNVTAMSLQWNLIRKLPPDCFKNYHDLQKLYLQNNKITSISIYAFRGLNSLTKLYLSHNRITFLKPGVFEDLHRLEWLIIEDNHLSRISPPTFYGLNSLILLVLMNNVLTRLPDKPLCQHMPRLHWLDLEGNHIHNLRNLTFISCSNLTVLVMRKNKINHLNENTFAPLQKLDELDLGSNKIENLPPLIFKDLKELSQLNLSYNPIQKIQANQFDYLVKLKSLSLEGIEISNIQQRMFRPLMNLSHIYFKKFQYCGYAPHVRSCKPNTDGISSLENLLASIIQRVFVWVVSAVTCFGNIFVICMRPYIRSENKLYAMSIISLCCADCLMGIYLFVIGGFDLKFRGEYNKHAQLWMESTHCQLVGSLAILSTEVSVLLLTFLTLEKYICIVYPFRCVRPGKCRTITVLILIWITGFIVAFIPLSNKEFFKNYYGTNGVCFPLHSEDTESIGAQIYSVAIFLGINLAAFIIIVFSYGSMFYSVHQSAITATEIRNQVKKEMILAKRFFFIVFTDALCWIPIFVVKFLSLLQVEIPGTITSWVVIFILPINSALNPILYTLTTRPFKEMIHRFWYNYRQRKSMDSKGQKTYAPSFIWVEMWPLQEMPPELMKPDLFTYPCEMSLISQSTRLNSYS

[3] = target: T2, human LGR7; experiment: direct radioligand binding, 100 pM, COS-7 cells transfected with human LGR7

binding [1]: binds
binding [2]: binds
binding [3]: binds
B1: human relaxin-3 (ligand)
chain: RAAPYGVRLCGREFIRAVIFTCGGSRWDVLAGLSSSCCKWGCSKSEISSLC
